PubChem BioAssay AID1159578, Peter MacCallum Cancer Centre | 2015

Aim: 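Knock-downs that alter how fast lymphatic endothelial cells migrate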 (primary screen)
System: human lymphatic endothelial cells
Knock-down reagent: siRNA pool against human genes, 40 nM
Timing: 48 h after transfection
Measured: 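Cells stained with dye and imaged after a scratch; covered wound area and nuclei counted, duplicates averaged, migration set against mock wells and turned into a robust z-score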
Reading the numbers: migration robust z-score: higher = faster migration into the scratch; migration relative to mock: higher = more scratch area covered than mock; nuclei per well: higher = more cells in the well
Active means: 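Migration changed when robust z exceeds 2 or falls below -2 and mean nuclei number is at least 3300; otherwise not called changed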
Meaning of the calls: active = migration changed; inactive = no migration change, or too few cells
The whole screen tested about 18,000 reagents; this is a random part of them. In the full data, about 1,030 (5.7%) are marked active. 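Inactive calls also include pools with fewer than 3300 nuclei, whose migration was not assessed.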 The raw values are shown without normalisation.

The first 6 entries, to show the layout:
no.	gene	migration robust z-score	migration class with cell-count check	migration relative to mock	nuclei per well, duplicate mean	Call
1	CD53	-1.98	migration z between -2 and 2; enough cells	0.37	6209	inactive
2	ZNF177	-0.04	migration z between -2 and 2; enough cells	0.88	6422	inactive
3	HPSE2	0.91	migration z between -2 and 2; enough cells	1.12	6216	inactive
4	ITGA2B	-0.42	migration z between -2 and 2; enough cells	0.72	5076	inactive
5	SLC39A9	-1.98	migration z between -2 and 2; enough cells	0.37	3778	inactive
6	UNC93A	-0.1	migration z between -2 and 2; enough cells	0.86	6534	inactive

The list itself, from the first entry:
no.	gene	migration robust z-score	migration class with cell-count check	migration relative to mock	nuclei per well, duplicate mean	Call
1	CD53	-1.98	migration z between -2 and 2; enough cells	0.37	6209	inactive
2	ZNF177	-0.04	migration z between -2 and 2; enough cells	0.88	6422	inactive
3	HPSE2	0.91	migration z between -2 and 2; enough cells	1.12	6216	inactive
4	ITGA2B	-0.42	migration z between -2 and 2; enough cells	0.72	5076	inactive
5	SLC39A9	-1.98	migration z between -2 and 2; enough cells	0.37	3778	inactive
6	UNC93A	-0.1	migration z between -2 and 2; enough cells	0.86	6534	inactive
7	C19orf33	0.62	migration z between -2 and 2; enough cells	1.04	4909	inactive
8	APLP1	0.64	migration z between -2 and 2; enough cells	1.05	5966	inactive
9	COL4A4	1.09	migration z between -2 and 2; enough cells	1.17	6272	inactive
10	USP42	0.36	migration z between -2 and 2; enough cells	0.88	6034	inactive
11	PAX7	-1.6	migration z between -2 and 2; enough cells	0.5	4938	inactive
12	METTL23	-1.04	migration z between -2 and 2; enough cells	0.62	5832	inactive
13	KIF27	-0.5	migration z between -2 and 2; enough cells	0.76	6779	inactive
14	TNS3	-0.64	migration z between -2 and 2; enough cells	0.68	5714	inactive
15	NASP	0.02	migration z between -2 and 2; enough cells	0.89	6494	inactive
16	HS3ST5	-0.02	migration z between -2 and 2; enough cells	0.8	6074	inactive
17	DNAAF5	2.23	migration z above 2; enough cells	1.46	7350	active
18	MOS	0.05	migration z between -2 and 2; enough cells	0.82	4301	inactive
19	HECW1	1.61	migration z between -2 and 2; enough cells	1.11	5896	inactive
20	MAP1B	-0.82	migration z between -2 and 2; enough cells	0.67	4738	inactive
21	PIP4K2A	-0.47	migration z between -2 and 2; enough cells	0.72	4714	inactive
22	SEMA6B	-0.13	migration z between -2 and 2; enough cells	0.86	5459	inactive
23	TMEM170A	0.09	migration z between -2 and 2; enough cells	0.9	5992	inactive
24	UTP15	-0.24	migration z between -2 and 2; enough cells	0.82	5246	inactive
25	VCL	0.32	migration z between -2 and 2; enough cells	0.97	6168	inactive
26	EIF3H	0.21	migration z between -2 and 2; enough cells	0.84	5416	inactive
27	CYP7A1	0.52	migration z between -2 and 2; enough cells	0.9	6230	inactive
28	PTBP2	0.55	migration z between -2 and 2; enough cells	0.91	5760	inactive
29	FADD	0.55	migration z between -2 and 2; enough cells	0.91	6020	inactive
30	PARP9	-0.75	migration z between -2 and 2; enough cells	0.69	5476	inactive
31	ARHGDIA	0.24	migration z between -2 and 2; enough cells	0.85	6006	inactive
32	ETNK2	-3.87	migration z below -2; enough cells	0.06	3631	active
33	NXPH4	0	migration z between -2 and 2; enough cells	0.88	5736	inactive
34	ASB5	-1.25	migration z between -2 and 2; enough cells	0.56	5392	inactive
35	LSMEM2	1.69	migration z between -2 and 2; enough cells	1.32	7866	inactive
36	GIPC3	-0.22	migration z between -2 and 2; enough cells	0.82	5739	inactive
37	F12	-1.48	migration z between -2 and 2; enough cells	0.52	5646	inactive
38	ZNF681	-0.9	migration z between -2 and 2; enough cells	0.66	6428	inactive
39	HSD17B3	0.42	migration z between -2 and 2; enough cells	0.88	6819	inactive
40	CCBE1	-1.01	migration z between -2 and 2; enough cells	0.62	4890	inactive
41	ZNF189	0.95	migration z between -2 and 2; enough cells	1.13	6176	inactive
42	WBP2NL	-0.03	migration z between -2 and 2; enough cells	0.88	6490	inactive
43	WDR31	0.32	migration z between -2 and 2; enough cells	0.86	6132	inactive
44	GPR143	-0.34	migration z between -2 and 2; enough cells	0.74	5850	inactive
45	GAS1	0.87	migration z between -2 and 2; enough cells	1.11	4976	inactive
46	S100A11	0.38	migration z between -2 and 2; enough cells	0.98	5854	inactive
47	TMEM98	-1.34	migration z between -2 and 2; enough cells	0.54	6179	inactive
48	TIGAR	1.61	migration z between -2 and 2; enough cells	1.12	6956	inactive
49	ASAP3	0.64	migration z between -2 and 2; enough cells	1.05	5488	inactive
50	TRIT1	0.06	migration z between -2 and 2; enough cells	0.82	3335	inactive
51	NOP2	0.68	migration z between -2 and 2; enough cells	0.94	5290	inactive
52	RRP1B	0.02	migration z between -2 and 2; enough cells	0.88	5030	inactive
53	E2F8	0.34	migration z between -2 and 2; enough cells	0.97	5872	inactive
54	SEMG2	1.88	migration z between -2 and 2; enough cells	1.38	4910	inactive
55	TMEM61	-0.12	migration z between -2 and 2; enough cells	0.86	3829	inactive
56	PKN3	-1.72	migration z between -2 and 2; enough cells	0.48	4062	inactive
57	DCTPP1	0.55	migration z between -2 and 2; enough cells	1.03	6218	inactive
